These are yes or no findings as the source states them, for the method shown. In cells and extracts the contact can be indirect. These calls come from enrichment with a bait or labelling near it, and not all partners need be listed. Each block holds one binder with its values, some of them ahead of it.
Assays:
UBA1 (human) = UBA1 (human) (UniProt P22314); experiment: affinity purification with mass spectrometry; C-terminally FLAG-tagged E1/E2 baits transfected in HEK293T; NP40 lysate, FLAG affinity resin at 4 °C overnight, eluted with FLAG peptide; spectral counting, SAINT >= 0.65 against no-FLAG controls; 3 replicates a bait, 10 controls
UBE2L6 (human) = UBE2L6 (human) (UniProt O14933); experiment: as above

The chains behind the UniProt entries cited, without tags or fusion partners.
UniProt P22314: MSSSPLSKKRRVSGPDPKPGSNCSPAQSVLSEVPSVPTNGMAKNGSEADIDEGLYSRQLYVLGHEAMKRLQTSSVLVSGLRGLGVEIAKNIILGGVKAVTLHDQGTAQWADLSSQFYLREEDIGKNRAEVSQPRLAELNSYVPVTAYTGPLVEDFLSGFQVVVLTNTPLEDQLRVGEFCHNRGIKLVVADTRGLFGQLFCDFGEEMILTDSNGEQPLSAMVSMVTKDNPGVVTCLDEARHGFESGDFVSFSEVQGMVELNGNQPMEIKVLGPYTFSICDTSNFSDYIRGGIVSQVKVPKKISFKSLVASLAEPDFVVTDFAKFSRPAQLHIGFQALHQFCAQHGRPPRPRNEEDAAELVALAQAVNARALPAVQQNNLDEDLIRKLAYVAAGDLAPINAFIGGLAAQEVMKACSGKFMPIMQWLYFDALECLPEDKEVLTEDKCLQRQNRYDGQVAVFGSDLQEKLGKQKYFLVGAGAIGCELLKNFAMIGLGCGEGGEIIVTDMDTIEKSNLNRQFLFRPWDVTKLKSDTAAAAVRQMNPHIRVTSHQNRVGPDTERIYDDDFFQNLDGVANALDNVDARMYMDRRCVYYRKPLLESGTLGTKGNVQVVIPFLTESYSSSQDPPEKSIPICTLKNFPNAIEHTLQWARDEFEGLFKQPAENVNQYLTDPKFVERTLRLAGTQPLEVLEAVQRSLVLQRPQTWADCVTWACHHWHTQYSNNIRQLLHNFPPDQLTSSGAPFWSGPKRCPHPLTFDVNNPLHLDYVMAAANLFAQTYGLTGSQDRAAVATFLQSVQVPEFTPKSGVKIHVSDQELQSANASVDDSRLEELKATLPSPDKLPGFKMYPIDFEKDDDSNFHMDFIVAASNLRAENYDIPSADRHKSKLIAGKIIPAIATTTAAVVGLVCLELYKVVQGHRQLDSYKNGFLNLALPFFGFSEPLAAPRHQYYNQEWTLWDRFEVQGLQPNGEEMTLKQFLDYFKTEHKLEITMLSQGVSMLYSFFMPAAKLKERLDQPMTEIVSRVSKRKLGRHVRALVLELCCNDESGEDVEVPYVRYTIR
UniProt O14933: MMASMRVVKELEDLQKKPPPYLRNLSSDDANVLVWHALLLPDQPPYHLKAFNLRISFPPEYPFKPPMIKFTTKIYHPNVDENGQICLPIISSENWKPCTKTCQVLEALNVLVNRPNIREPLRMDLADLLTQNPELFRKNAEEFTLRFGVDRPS

binding (UBA1 (human)): binds
B1: UBE2J1 (enzyme, UniProt Q9Y385 1-318)
chain: METRYNLKSPAVKRLMKEAAELKDPTDHYHAQPLEDNLFEWHFTVRGPPDSDFDGGVYHGRIVLPPEYPMKPPSIILLTANGRFEVGKKICLSISGHHPETWQPSWSIRTALLAIIGFMPTKGEGAIGSLDYTPEERRALAKKSQDFCCEGCGSAMKDVLLPLKSGSDSSQADQEAKELARQISFKAEVNSSGKTISESDLNHSFSLTDLQDDIPTTFQGATASTSYGLQNSSAASFHQPTQPVAKNTSMSPRQRRAQQQSQRRLSTSPDVIQGHQPRDNHTDHGGSAVLIVILTLALAALIFRRIYLANEYIFDFEL

binding (UBA1 (human)): binds
B2: UBE2G1 (enzyme, UniProt P62253 1-170)
chain: MTELQSALLLRRQLAELNKNPVEGFSAGLIDDNDLYRWEVLIIGPPDTLYEGGVFKAHLTFPKDYPLRPPKMKFITEIWHPNVDKNGDVCISILHEPGEDKYGYEKPEERWLPIHTVETIMISVISMLADPNGDSPANVDAAKEWREDRNGEFKRKVARCVRKSQETAFE

binding (UBA1 (human)): binds
B3: UBE2J2 (enzyme, UniProt Q8N2K1 1-259)
chain: MSSTSSKRAPTTATQRLKQDYLRIKKDPVPYICAEPLPSNILEWHYVVRGPEMTPYEGGYYHGKLIFPREFPFKPPSIYMITPNGRFKCNTRLCLSITDFHPDTWNPAWSVSTILTGLLSFMVEKGPTLGSIETSDFTKRQLAVQSLAFNLKDKVFCELFPEVVEEIKQKQKAQDELSSRPQTLPLPDVVPDGETHLVQNGIQLLNGHAPGAVPNLAGLQQANRHHGLLGGALANLFVIVGFAAFAYTVKYVLRSIAQE

binding (UBE2L6 (human)): binds
B4: UBA6 (enzyme, UniProt A0AVT1 1-1052)
chain: MEGSEPVAAHQGEEASCSSWGTGSTNKNLPIMSTASVEIDDALYSRQRYVLGDTAMQKMAKSHVFLSGMGGLGLEIAKNLVLAGIKAVTIHDTEKCQAWDLGTNFFLSEDDVVNKRNRAEAVLKHIAELNPYVHVTSSSVPFNETTDLSFLDKYQCVVLTEMKLPLQKKINDFCRSQCPPIKFISADVHGIWSRLFCDFGDEFEVLDTTGEEPKEIFISNITQANPGIVTCLENHPHKLETGQFLTFREINGMTGLNGSIQQITVISPFSFSIGDTTELEPYLHGGIAVQVKTPKTVFFESLERQLKHPKCLIVDFSNPEAPLEIHTAMLALDQFQEKYSRKPNVGCQQDSEELLKLATSISETLEEKPDVNADIVHWLSWTAQGFLSPLAAAVGGVASQEVLKAVTGKFSPLCQWLYLEAADIVESLGKPECEEFLPRGDRYDALRACIGDTLCQKLQNLNIFLVGCGAIGCEMLKNFALLGVGTSKEKGMITVTDPDLIEKSNLNRQFLFRPHHIQKPKSYTAADATLKINSQIKIDAHLNKVCPTTETIYNDEFYTKQDVIITALDNVEARRYVDSRCLANLRPLLDSGTMGTKGHTEVIVPHLTESYNSHRDPPEEEIPFCTLKSFPAAIEHTIQWARDKFESSFSHKPSLFNKFWQTYSSAEEVLQKIQSGHSLEGCFQVIKLLSRRPRNWSQCVELARLKFEKYFNHKALQLLHCFPLDIRLKDGSLFWQSPKRPPSPIKFDLNEPLHLSFLQNAAKLYATVYCIPFAEEDLSADALLNILSEVKIQEFKPSNKVVQTDETARKPDHVPISSEDERNAIFQLEKAILSNEATKSDLQMAVLSFEKDDDHNGHIDFITAASNLRAKMYSIEPADRFKTKRIAGKIIPAIATTTATVSGLVALEMIKVTGGYPFEAYKNCFLNLAIPIVVFTETTEVRKTKIRNGISFTIWDRWTVHGKEDFTLLDFINAVKEKYGIEPTMVVQGVKMLYVPVMPGHAKRLKLTMHKLVKPTTEKKYVDLTVSFAPDIDGDEDLPGPPVRYYFSHDTD
